Consider 2 substances from article PMC10830551.

Sequences of proteins named here, by UniProt entry; tags and fusion partners are left off. Residues count along the entry.
UniProt P67809: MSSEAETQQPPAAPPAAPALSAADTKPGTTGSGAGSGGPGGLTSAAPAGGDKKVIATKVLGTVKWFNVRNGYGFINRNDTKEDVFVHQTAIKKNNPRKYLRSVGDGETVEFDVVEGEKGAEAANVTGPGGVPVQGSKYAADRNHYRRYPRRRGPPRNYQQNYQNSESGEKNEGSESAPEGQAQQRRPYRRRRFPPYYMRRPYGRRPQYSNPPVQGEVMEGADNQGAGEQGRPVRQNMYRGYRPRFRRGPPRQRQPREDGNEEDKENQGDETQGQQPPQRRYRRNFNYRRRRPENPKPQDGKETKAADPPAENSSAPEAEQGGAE
UniProt Q9HCK4, residues 22-1378: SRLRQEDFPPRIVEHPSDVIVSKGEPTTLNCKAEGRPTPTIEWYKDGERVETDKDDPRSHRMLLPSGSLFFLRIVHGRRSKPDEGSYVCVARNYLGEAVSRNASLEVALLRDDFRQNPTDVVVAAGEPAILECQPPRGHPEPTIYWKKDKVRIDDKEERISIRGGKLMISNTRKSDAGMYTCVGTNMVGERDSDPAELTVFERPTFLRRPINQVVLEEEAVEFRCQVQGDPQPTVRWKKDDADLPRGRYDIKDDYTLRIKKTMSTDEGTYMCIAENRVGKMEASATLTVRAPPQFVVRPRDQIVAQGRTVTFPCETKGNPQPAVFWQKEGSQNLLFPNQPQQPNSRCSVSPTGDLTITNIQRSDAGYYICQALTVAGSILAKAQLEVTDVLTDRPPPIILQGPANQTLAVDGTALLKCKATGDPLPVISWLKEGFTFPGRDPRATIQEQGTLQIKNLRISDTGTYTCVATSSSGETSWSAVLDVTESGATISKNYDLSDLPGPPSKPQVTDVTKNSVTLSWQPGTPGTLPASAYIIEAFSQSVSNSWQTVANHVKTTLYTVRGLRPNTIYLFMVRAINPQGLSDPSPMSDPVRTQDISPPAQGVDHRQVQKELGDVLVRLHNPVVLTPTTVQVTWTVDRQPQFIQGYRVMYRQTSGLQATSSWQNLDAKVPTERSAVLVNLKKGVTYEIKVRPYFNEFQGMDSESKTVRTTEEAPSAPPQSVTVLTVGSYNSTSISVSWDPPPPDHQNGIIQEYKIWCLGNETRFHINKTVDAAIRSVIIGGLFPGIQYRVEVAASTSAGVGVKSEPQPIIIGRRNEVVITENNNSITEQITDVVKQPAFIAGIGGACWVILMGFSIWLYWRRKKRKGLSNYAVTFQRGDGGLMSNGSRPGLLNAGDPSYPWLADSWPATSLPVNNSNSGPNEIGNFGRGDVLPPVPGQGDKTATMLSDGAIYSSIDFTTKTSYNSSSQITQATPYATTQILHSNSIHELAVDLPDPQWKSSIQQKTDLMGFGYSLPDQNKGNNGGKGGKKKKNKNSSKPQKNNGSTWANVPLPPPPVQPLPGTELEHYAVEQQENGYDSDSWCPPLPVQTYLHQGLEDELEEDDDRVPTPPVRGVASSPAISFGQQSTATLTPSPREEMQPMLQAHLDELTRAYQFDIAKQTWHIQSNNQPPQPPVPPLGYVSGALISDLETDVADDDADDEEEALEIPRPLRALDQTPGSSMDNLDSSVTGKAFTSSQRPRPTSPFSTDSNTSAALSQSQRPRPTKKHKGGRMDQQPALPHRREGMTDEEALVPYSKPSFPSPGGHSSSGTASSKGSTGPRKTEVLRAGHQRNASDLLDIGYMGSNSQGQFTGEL

The target of experiment [1] is Y-box binding protein 1 (human (endogenous in HepG2 or Huh7)) (UniProt P67809). As to the kind of experiment: co-IP; total cell protein in cold lysis buffer, precleared with protein A/G agarose beads; primary antibody (rabbit anti-YB-1 or mouse anti-Robo2) overnight at 4 C, protein A/G magnetic beads 2 h; western blot of the partner; controls normal rabbit or mouse IgG. On the technique in general: Immunoblotting shows a protein as a band on a membrane.

The target in experiment [2] is Roundabout guidance receptor 2 (human (endogenous in HepG2 or Huh7)) (UniProt Q9HCK4). Described as above.

Results are given in words; binding and its absence hold for the method and conditions named. Binding seen in cells or lysates may run through a third protein. Some binding calls cover weakened binding; strength is not graded here.

For “Roundabout guidance receptor 2 (from UniProt Q9HCK4 22-1378)”, the binding entry in experiment [1] is listed as “binds”.

Regarding “Y-box binding protein 1 (from UniProt P67809 1-324)”, in experiment [2], the binding result was “binds”.
